Measured values published in paper PMC6351623.
These are yes or no findings as the source states them, for the method shown. Binding calls can cover weak binding; strength is not graded here. For some of these results: Binding seen in cells or lysates may run through a third protein. One block for each substance: values may come before it.

Amino acid sequences for entries named in this document (tags omitted). A change or cut given only in a name is not applied to a line headed by its entry.
UniProt Q6C7A0: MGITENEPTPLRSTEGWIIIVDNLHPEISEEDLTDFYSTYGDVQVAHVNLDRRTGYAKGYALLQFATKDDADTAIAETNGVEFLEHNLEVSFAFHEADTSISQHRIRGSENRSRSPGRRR
UniProt Q6C2H2: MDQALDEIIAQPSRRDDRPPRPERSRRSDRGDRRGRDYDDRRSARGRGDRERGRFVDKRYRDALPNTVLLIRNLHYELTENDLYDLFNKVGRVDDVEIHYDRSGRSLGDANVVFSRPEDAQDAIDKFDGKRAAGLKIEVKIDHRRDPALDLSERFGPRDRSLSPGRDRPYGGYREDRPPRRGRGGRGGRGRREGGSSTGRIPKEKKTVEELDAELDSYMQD
UniProt Q6C7N5: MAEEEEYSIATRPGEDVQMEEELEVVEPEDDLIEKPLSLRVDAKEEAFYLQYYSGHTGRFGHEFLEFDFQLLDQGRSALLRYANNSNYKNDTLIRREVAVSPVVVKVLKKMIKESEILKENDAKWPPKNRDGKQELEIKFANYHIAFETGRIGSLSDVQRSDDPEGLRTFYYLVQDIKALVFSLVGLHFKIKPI

How the values were obtained:
[1] = target: Gal4BD-Y14 (Yarrowia lipolytica Y14 fused to the Gal4p DNA-binding domain) (Yarrowia lipolytica) (UniProt Q6C7A0); experiment: two-hybrid; S. cerevisiae PJ69-4A; Gal4BD-Y14 (pAS2ΔΔ) with Gal4AD-Mago (pACT2); growth on minimal medium lacking leucine, tryptophan and histidine + 5 mM 3-aminotriazole
[2] = target: Y14-V5 (Yarrowia lipolytica Y14 with a V5 epitope just downstream from the ATG codon) (Yarrowia lipolytica) (UniProt Q6C7A0); experiment: co-IP; solubilized extracts (2% Triton X-100, 0.5% SDS, diluted five times in PBS) from membrane-enriched fractions of Y. lipolytica strains over-expressing the tagged proteins; anti-FLAG, anti-V5 or anti-HA immunoprecipitation, 4 hours at 4 °C; Western blot
[3] = target: Aly/REF-HA (Yarrowia lipolytica Aly/REF with an HA tag) (Yarrowia lipolytica) (UniProt Q6C2H2); experiment: as above
[4] = target: Mago-FLAG (Yarrowia lipolytica Mago with a C-terminal FLAG tag) (Yarrowia lipolytica) (UniProt Q6C7N5); experiment: as above

- binding [1]: binds
Substance: Gal4AD-Mago (Yarrowia lipolytica Mago fused to the Gal4p-activating domain) (from UniProt Q6C7N5)

- binding [2]: binds
Substance: Mago-FLAG (Yarrowia lipolytica Mago with a C-terminal FLAG tag) (from UniProt Q6C7N5)

- binding [3]: binds
- binding [4]: binds
Substance: Y14-V5 (Yarrowia lipolytica Y14 with a V5 epitope just downstream from the ATG codon) (from UniProt Q6C7A0)
